Measurements from PubChem BioAssay AID1347075 (National Center for Advancing Translational Sciences (NCATS), 2019).
Where “and” joins values, the source holds several entries; their conditions need not be identical. Equal values may be shown once. In all, about 400,000 compounds went through this assay and about 5,500 (1.4%) were called active. Inconclusive results, whose numbers are uncertain, are shown with a selection of clear calls. Calls come from the whole dose curve; as a rule, active = well fitted cell-killing curve with a large enough effect; inconclusive = small, poorly fitted or top-dose-only effect, or effect the other way; inactive = flat fitted curve, though single readings scatter. Potencies of inconclusive entries are doubtful fits and often do not repeat.

Assay: qHTS assay for MDR1-selective chemotherapeutics: Primary screen using the parental adenocarcinoma cell KB-3-1; note: nearly all actives have a fitted effect of over 60% in size
Details: KB-3-1 viability, CellTiter-Glo ATP luminescence, 72 h; activity change, negative = cytotoxic: at 46.1 µM (top of the series)
Procedure, shortened: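 Here the drug-naive KB-3-1 line serves as comparator for MDR sub-line selectivity; cells received compound titrations, 72 h at 37 °C, then CellTiter-Glo readout.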
% is set by controls: 0 for no effect and ±100 for the full control effect; potency is the fitted concentration of half-maximal effect.

| SMILES | Potency | activity change, negative = cytotoxic |
| --- | --- | --- |
| O=S(=O)(c1ccc2ccccc2c1)N1CCN(C(=S)Nc2ccccc2F)CC1 | inconclusive: 7.31 µM [cytotoxic, partial curve, poor fit] | – |
| COc1cc(-c2c(-c3cc(OC)c(OC)c(OC)c3)noc2C)ccc1F | inconclusive: 5.8 nM [cytotoxic, full curve, poor fit] and active: 326 nM | – |
| COc1ccc(-c2cc(C)no2)cc1S(=O)(=O)NCc1cccs1 | inconclusive: 29.1 µM [cytotoxic, single point] | – |
| NC(=O)c1cccc(-c2ccnc3c2CC(C(=O)NCCc2ccccc2)O3)c1 (stereo not drawn) | inconclusive: 16.4 µM [cytotoxic, single point] | – |
| COc1ccc(CN2CCc3c(c(=O)n4ncc(C(=O)N5CCN(c6ccc(F)cc6)CC5)c4n3C)C2)cc1 | inconclusive: 6.51 µM [cytotoxic, partial curve] | – |
| COC(=O)c1c(NC(=O)Cc2coc3cc(C)ccc23)sc2c1CCCC2 | inactive | – |
| COc1ccc(OC)c(S(=O)(=O)Nc2c(C)n(C)n(-c3ccccc3)c2=O)c1 | inactive | – |
| COc1ccccc1Cc1c(-c2cccc(Cl)c2)nc2ccc(Br)cn12 | inactive | – |
| CC(=O)N1CCc2c(sc3c2c(=O)n(-c2ccc(C)cc2)c(=O)n3Cc2c(F)cccc2Cl)C1 | inactive | – |
| O=C(NCc1cccc(Cl)c1)c1ccc(S(=O)(=O)Nc2cccc(C(F)(F)F)c2)cc1 | inconclusive: 23.1 µM [cytotoxic, single point] | – |
| Cc1nn(C(C)C(=O)NCc2cccs2)c(C)c1[N+](=O)[O-] (stereo not drawn) | inactive | – |
| O=C(NNc1ccc(-c2csnn2)cc1)c1cc(Cl)cc(Cl)c1 | – | inconclusive: 0% |
| O=C(COC(=O)c1nn(-c2ccccc2C(F)(F)F)cc1O)c1ccc(OC(F)F)cc1 | inactive | – |
| Cc1ccc2nc(N(CCCN(C)C)C(=O)c3ccc4c(c3)CCCC4)sc2c1 | inconclusive: 29.1 µM [cytotoxic, single point] | – |
| O=c1c(Cl)c(Cl)cnn1-c1ccccc1 | active: 18.4 µM | – |
| Nc1sc(Cc2ccccc2)cc1C(=O)c1c(-c2ccccc2)[nH]c2ccccc12 | active: 5.8 µM | – |
| O=C(CSc1nc2ccsc2c(=O)n1Cc1ccccc1Cl)NCc1ccc(F)cc1 | inactive | – |
| Cc1ccc(-n2nnnc2SCn2nnc3ccccc3c2=O)cc1 | inactive | – |
| COc1ccc(SCCN2CCN(CC(C)C)CCC2=O)cc1 | inconclusive: 29.1 µM [cytotoxic, single point] | – |
| COc1ccccc1N1CCN(C(c2ccc(Cl)cc2)c2nnnn2C(C)(C)C)CC1 (stereo not drawn) | inconclusive: 18.4 µM [cytotoxic, single point] | – |
| O=C(Nc1ccc(N2CCN(C(=O)c3ccco3)CC2)cc1)c1cccc(F)c1 | inconclusive: 23.1 µM [cytotoxic, single point] | – |
| CN(C)/C=C1\SC(=S)N(c2ccc(Br)cc2)C1=O | inactive | – |

9 successive entries out of the list so far, for reference:

| SMILES | Potency | activity change, negative = cytotoxic |
| --- | --- | --- |
| Cc1ccc2nc(N(CCCN(C)C)C(=O)c3ccc4c(c3)CCCC4)sc2c1 | inconclusive: 29.1 µM [cytotoxic, single point] | – |
| O=c1c(Cl)c(Cl)cnn1-c1ccccc1 | active: 18.4 µM | – |
| Nc1sc(Cc2ccccc2)cc1C(=O)c1c(-c2ccccc2)[nH]c2ccccc12 | active: 5.8 µM | – |
| O=C(CSc1nc2ccsc2c(=O)n1Cc1ccccc1Cl)NCc1ccc(F)cc1 | inactive | – |
| Cc1ccc(-n2nnnc2SCn2nnc3ccccc3c2=O)cc1 | inactive | – |
| COc1ccc(SCCN2CCN(CC(C)C)CCC2=O)cc1 | inconclusive: 29.1 µM [cytotoxic, single point] | – |
| COc1ccccc1N1CCN(C(c2ccc(Cl)cc2)c2nnnn2C(C)(C)C)CC1 (stereo not drawn) | inconclusive: 18.4 µM [cytotoxic, single point] | – |
| O=C(Nc1ccc(N2CCN(C(=O)c3ccco3)CC2)cc1)c1cccc(F)c1 | inconclusive: 23.1 µM [cytotoxic, single point] | – |
| CN(C)/C=C1\SC(=S)N(c2ccc(Br)cc2)C1=O | inactive | – |

Carrying on.

| SMILES | Potency | activity change, negative = cytotoxic |
| --- | --- | --- |
| CC(C)CNC(=O)c1cccc(NC(=O)CSc2ccccc2)c1 | inconclusive: 0.0065 µM [rising, full curve] | – |
| S=C1SCN(Cc2cccnc2)CN1Cc1cccnc1 | inconclusive: 29.1 µM [cytotoxic, single point] | – |
| CC(C)(C)OC(=O)NCCCC[C@H](NC(=O)c1[nH]cnc1C(=O)N[C@@H](Cc1ccccc1)C(=O)OC(C)(C)C)C(=O)OC(C)(C)C | inconclusive: 29.1 µM [cytotoxic, single point] | – |
| Fc1cccc(Cn2cc(C(=S)N3CCOCC3)c3ccccc32)c1 | inactive | – |
| CCN1CCS/C1=C/C=C/C1=[N+](CC)CCS1 | inconclusive: 7.31 µM [cytotoxic, partial curve, poor fit] | – |
| CCN(CC(=O)Nc1ccccc1OC)C(=O)c1ccc2[nH]c3c(c2c1)CC(C)CC3 (stereo not drawn) | inconclusive: 16.4 µM [cytotoxic, partial curve] | – |
| CCN(C(=O)c1cc2c(C)nc3ccccc3c2o1)c1cc(Cl)ccc1OC | inconclusive: 1.3 µM [cytotoxic, full curve, poor fit] | – |
| Cc1ccc(NC(=O)Nc2nnc(-c3ccncc3)s2)cc1C | inconclusive: 20.6 µM [cytotoxic, single point] and inconclusive: 29.1 µM [cytotoxic, single point] | – |
| C=CCC[C@@H](Cc1ccc(F)cc1)C(=O)OC[C@@H](Cc1c[nH]c2ccccc12)NC(=O)[C@H](CC=C)CC(=O)N[C@H](CO)Cc1ccccc1 | inconclusive: 29.1 µM [cytotoxic, single point] | – |
| O=C(CCCN1C(=O)/C(=C/c2ccccc2)SC1=S)NCCCn1ccnc1 | inconclusive: 20.6 µM [cytotoxic, single point] | – |
| CSCCC(NC(=O)COc1ccccc1)C(=O)N(C)Cc1c(F)cccc1Cl (stereo not drawn) | inactive | – |
| O=C1c2cccc3cccc(c23)C(=O)N1CCN1CCN(CC(O)COCc2ccc(Cl)cc2)CC1 (stereo not drawn) | inconclusive: 29.1 µM [cytotoxic, single point] | – |
| O=C1/C(=N\S(=O)(=O)c2cccs2)C([n+]2cccc(Cc3ccccc3)c2)=C([O-])c2ccccc21 | inconclusive: 29.1 µM [cytotoxic, single point] | – |
| CC(CCCC(C)(C)O)CC1C2=C(CCCC2=O)OC2=C1C(=O)CCC2 (stereo not drawn) | inactive | – |
| Cc1ccc(NC(=O)Cn2nnc(C(=O)NCc3ccc4c(c3)OCO4)c2N)cc1 | inconclusive: 18.4 µM [cytotoxic, partial curve, poor fit] | – |
| COc1ccc(/C=N/n2cc(-c3ccccc3)nc2N)cc1 | active: 3.66 µM | – |
| N#Cc1c(-c2ccccc2)[nH]c(=S)[nH]c1=O | inactive | – |
| CC(=O)c1ccc(Nc2cc(C)nc3ccc(C)cc23)cc1 | inconclusive: 29.1 µM [cytotoxic, single point] | – |
| CCOC(=O)C1=C(CCc2ccccc2)NC(=O)NC1c1ccc(Br)cc1 (stereo not drawn) | inconclusive: 23.1 µM [cytotoxic, single point] | – |
| CCC(=O)Nc1ccc2nc(SCCOc3ccc(C)cc3)sc2c1 | inactive | – |
| CCOC(=O)C1CCN(C(=O)CN2c3ccc(CC)cc3-c3ccccc3S2(=O)=O)CC1 | inactive | – |
